Record: PubChem BioAssay AID1259254 (NCATS, 2017)
This is one part, drawn at random, of about 59,000 reagents. About 1,550 of them (2.6%) were called active. 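G2 share is only a proxy for re-replication; each gene was hit by three separate siRNAs, and active genes were retested.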 Raw values vary from plate to plate and are shown uncorrected. Reagents against one gene are numbered here. The record does not give: the amount of reagent.

Purpose: 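Genome-wide screen for genes that prevent DNA re-replication in cancer cells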 (primary screen)
System: human HCT116 colorectal cancer cells
Reagent: single siRNA against human genes
Duration: 3 days
Read-out: 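Nuclei stained with Hoechst and imaged; cell-cycle phase assigned by DNA content; G2 share scaled per plate, non-targeting siRNA 0%, GMNN siRNA 100%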
Reading the numbers: G2 robust z-score and G2 cells, % of GMNN control: higher = more G2 cells, more excess DNA replication; raw share of cells in G2: higher = larger share of cells with G2 DNA content
Hit rule: 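An siRNA counts as active if its G2 robust z-score lies at least 5 MADs above the screen median; here such calls match roughly 38% of GMNN control or more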

Target gene,siRNA no.,G2 robust z-score,"G2 cells, % of GMNN control",raw share of cells in G2 (%),outcome
TMEM87A,1,1.38,12.6,9.17,inactive
TMEM87A,2,0.753,8.27,7.52,inactive
TMEM87A,3,3.77,29.5,13.6,inactive
IGFL2,1,0.729,8.09,6.54,inactive
IGFL2,2,-0.527,-0.738,2.68,inactive
IGFL2,3,-0.352,0.491,3.24,inactive
ITPK1,1,-0.0208,2.82,5.02,inactive
ITPK1,2,0.991,9.94,8.89,inactive
ITPK1,3,-0.728,-2.16,4.68,inactive
DGCR8,1,-0.903,-3.39,2.5,inactive
DGCR8,2,0.917,9.42,7.72,inactive
DGCR8,3,-0.21,1.49,6.63,inactive
SP140,1,3.28,26.1,12.8,inactive
SP140,2,1.07,10.5,10.6,inactive
SP140,3,-0.784,-2.55,3.3,inactive
IL17A,1,5.16,39.3,17.5,active
IL17A,2,3.92,30.5,18,inactive
IL17A,3,-0.36,0.433,4.39,inactive
ACE,1,-1.23,-5.66,3.58,inactive
ACE,2,-0.623,-1.42,4.41,inactive
ACE,3,-0.256,1.16,4.34,inactive
PAK4,1,2.64,21.6,12.3,inactive
PAK4,2,0.88,9.16,8.52,inactive
PAK4,3,0.0274,3.16,4.69,inactive
FAM174A,1,1.59,14.2,9.89,inactive
FAM174A,2,-0.264,1.11,4.37,inactive
FAM174A,3,0.178,4.22,5.1,inactive
ZMYM6,1,-0.305,0.822,5.55,inactive
ZMYM6,2,0.851,8.96,8.61,inactive
ZMYM6,3,-1.44,-7.19,2.13,inactive

2 entries from above in another layout.
{"Target gene":"IGFL2","siRNA no.":2,"G2 robust z-score":-0.527,"G2 cells, % of GMNN control":-0.738,"raw share of cells in G2 (%)":2.68,"outcome":"inactive"}
{"Target gene":"IGFL2","siRNA no.":3,"G2 robust z-score":-0.352,"G2 cells, % of GMNN control":0.491,"raw share of cells in G2 (%)":3.24,"outcome":"inactive"}
